From PubChem BioAssay AID651660 (Broad Institute, 2012)
In all, about 1,900 compounds went through this assay and about 15 (0.8%) were called active.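 The calls were made as follows: active = every replicate shows at least 50% inhibition; inconclusive = mean inhibition at least 50% but some replicate below; inactive = the rest.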 This is one part of the list.

The chains behind the UniProt entries cited, without tags or fusion partners. Where a name states a change or a piece, a line headed by the entry shows the natural chain unless it says otherwise.
UniProt P43351: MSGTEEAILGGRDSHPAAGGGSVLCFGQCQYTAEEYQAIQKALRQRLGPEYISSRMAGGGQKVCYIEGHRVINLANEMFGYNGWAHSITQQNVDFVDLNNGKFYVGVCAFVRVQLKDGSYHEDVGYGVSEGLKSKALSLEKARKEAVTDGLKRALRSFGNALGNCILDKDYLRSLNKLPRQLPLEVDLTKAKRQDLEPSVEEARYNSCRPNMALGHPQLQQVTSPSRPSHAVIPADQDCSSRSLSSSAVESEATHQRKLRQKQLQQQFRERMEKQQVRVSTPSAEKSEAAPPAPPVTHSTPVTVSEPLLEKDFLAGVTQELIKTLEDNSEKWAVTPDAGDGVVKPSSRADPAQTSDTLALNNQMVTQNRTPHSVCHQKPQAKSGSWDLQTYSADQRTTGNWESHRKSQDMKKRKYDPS

Target: DNA repair protein RAD52 homolog (Homo sapiens) (UniProt P43351)
Experiment: RAD52 ssDNA annealing inhibitors, primary screen, biochemical, FRET, single point (AID 651660);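 also: 0% = median of neutral control wells and 100% = median of positive control wells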
Details: Recombinant RAD52 ssDNA annealing, FRET fluorescence, 30 min; at 18.7 µM; hits give high values

inhibition, inactive:
CC(C)c1cc(=O)oc2c3c4c(cc12)CCCN4CCC3 -27%, CSCC[C@H](NC(=O)OC(C)(C)C)C(=O)N1CCC(C(=O)N[C@@H](C)C(=O)O)CC1 -2.27%, COc1ccc(/C=C2\CC/C(=C\c3ccc(OC)c(OC)c3)C2=O)cc1OC 7.46%, COc1cc2c(cc1O)CCN(C(=O)c1ccco1)C2C (stereo not drawn) -4.8%, CCC(C)NCCOc1ccccc1C (stereo not drawn) -7.23%, O=C1Nc2ccc3sc4ccccc4c3c2C1=O 31.8%, COc1ccccc1NC(=O)N1CCc2[nH]c3ccc(Cl)cc3c2C1 -3.48%, CC12CCCCN1CCCc1c2[nH]c2ccccc12 (stereo not drawn) -495%, Cn1c(=O)c2c(ncn2CC(O)CO)n(C)c1=O (stereo not drawn) 4.42%, COc1cccc(N2C(=O)CC(c3c[nH]c4ccccc34)C2=O)c1 (stereo not drawn) -22.5%, O=C(O)C1CSC(c2ccc3c(c2)OCO3)N1 (stereo not drawn) -10.3%, N=C1C(c2ccccc2)=C(O)CN1CCCO -1.52%, CO/N=C(\C(=O)N[C@@H]1C(=O)N2C(C(=O)O)=C(COC(C)=O)CS[C@H]12)c1csc(N)n1 (stereo in doubt) -14.2%, NC(=O)c1cccnc1 1.12%, COC(=O)CN1CC(=O)N(c2ccccc2)C1=S -5.99%, O=C(/C=C/Sc1ccccc1)c1ccccc1 15.7%, C=CCC1(O)C(=O)N2C(=C1C(=O)N1CCOCC1)c1ccccc1CC2(C)C (stereo not drawn) -5%, Cc1c(OC(=O)CNC(=O)OC(C)(C)C)ccc2c3c(c(=O)oc12)CCC3 -6.45%, OCCC1CN(Cc2ccccc2-c2ccco2)CCN1C1CCCC1 (stereo not drawn) -0.005%, COc1ccccc1C(CC(=O)Nc1ccccc1C)c1ccc(OC(C)C)cc1 (stereo not drawn) 6.61%, COc1ccc(CCNC(=S)NC(=O)/C=C/c2ccc(C)cc2)cc1OC -6.55%, O=c1nc2n(c3c1oc1ccccc13)Cc1ccccc1-2 0.916%, COc1cc(C2C(C(=O)c3ccc(C)o3)=C(O)C(=O)N2Cc2cccnc2)ccc1O (stereo not drawn) -15.4%, CC(=O)Oc1c2occc2cc2ccc(=O)oc12 -13.7%, COc1c(C=O)c(CCN(C)C(=O)c2ccc(F)cc2)cc2c1OCO2 -6.18%, CC1(C)Cc2ccccc2-c2nc(-c3ccccc3)oc(=O)c21 -17.7%, C=CC1=C(C(=O)O)N2C(=O)C(NC(=O)Cc3ccccc3)C2SC1 (stereo not drawn) -31.6%, CCOC(=O)c1cccc(P(C)(C)=O)c1 -0.62%, CCOCCCNCc1cn(-c2ccc(F)cc2F)nc1-c1ccccc1C 9.75%, C=CCc1ccccc1OCC(O)CNC(C)C (stereo not drawn) 0.118%, O=C(Cc1ccccc1)NNC(=O)Cc1ccccc1 0.18%, CCCCOc1ccc(CC(=O)NO)cc1 0.125%, CC(=O)OC(C)C[N+](C)(C)C (stereo not drawn) -9.81%, CC(=O)Nc1ccccc1C(=O)C(=O)Nc1ccccc1 5.62%, Cc1ccccc1OCC(O)CN1CCN(C)CC1 (stereo not drawn) -3.62%, N/C(=N\OC(=O)/C=C/c1ccccc1)c1ccc(Br)cc1 -5.01%, Nc1ccc2nc(Cc3ccccc3)[nH]c2c1 33.4%, CN(C)CCC(c1ccccc1)c1ccccn1 (stereo not drawn) -0.77%, CC1(C)C(=O)OC(C(=O)c2ccc(Cl)cc2)C(C)(C)C1=O (stereo not drawn) 0.981%, O=C(O)CCCCCCNC(=O)c1cncc(O)c1 3.04%, CC[C@]1(O)C[C@@H]2CN(CCc3c([nH]c4ccccc34)[C@@](C(=O)OC)(c3cc4c(cc3OC)N(C)[C@H]3[C@@](O)(C(=O)OC)[C@H](OC(C)=O)[C@]5(CC)C=CCN6CC[C@]43[C@@H]65)C2)C1 -86.1%, CN(C)CCOC(c1ccccc1)c1ccccc1 (tested in a mixture with another compound) 0.693%, CCN(CCCc1ccccc1)CCCc1ccccc1 -3.65%, COc1ccc(C2c3c(n[nH]c3C)CC(C)(O)C2C(C)=O)cc1OC (stereo not drawn) -2.26%, CC12CCC(C(=O)N(CCC#N)CCC#N)(CC1=O)C2(C)C (stereo not drawn) -4.83%, Nc1ccc(N=Nc2ccccc2)c(N)n1 27.1%, CC(C)COc1ccc(Cc2cnc(N)nc2N)cc1 11.8%, CCN(CC)C(=O)N1CCN(C)CC1 -10.1%, O=C1CCCN1C(=O)CCC(=O)N1CCCC1=O 5.72%, COc1ccc(C2NC(=O)c3ccccc3O2)c(OC)c1OC (stereo not drawn) -1.29%, O=C(CC(NC(=O)OCc1ccccc1)C(=O)O)OCc1ccccc1 (stereo not drawn) -2.85%, Cc1cccc2c(C(=O)O)cc(-c3cccnc3)nc12 -3.93%, COC(=O)C1=C(C)N(Cc2ccco2)C(=O)/C1=C\c1ccc([N+](=O)[O-])cc1 -17.8%, CC(C)(C)C(=O)NC(=S)Nc1sc2c(c1C(N)=O)CCC2 -18.1%, Cc1ccc(S(=O)(=O)N[C@@H](C)C(=O)N2CCC(C(=O)N3CCC[C@H]3C(=O)O)CC2)cc1 -7.39%, CCOC(=O)C1C(=O)OC(C)(C)C1C(C)C(=O)c1ccc(C)cc1 (stereo not drawn) -1.73%, CC1(C)CC(=O)C(C(=O)CCCCC(=O)C2C(=O)CC(C)(C)CC2=O)C(=O)C1 -11.5%, O=C(Cc1cccc2ccccc12)N1CC[C@@]2(O)CCCC[C@H]2C1 -0.364%, CCOC(=O)c1ccccc1NC(=O)c1ccc(F)cc1 18.1%, OCC(O)CN1CCN(c2ccccc2)CC1 (stereo not drawn) -2.28%, CC(C)C[C@H](NC(=O)NC(C)C)C(=O)O -9.64%, CN(C)CCC(c1ccc(Cl)cc1)c1ccccn1 (stereo not drawn) -8.82%, COc1ccc(-c2coc3cc(O)cc(O)c3c2=O)cc1 8.53%
